In PubChem BioAssay AID1671190 (National Center for Advancing Translational Sciences (NCATS), 2021):
The whole screen tested about 580,000 compounds, of which about 6,100 (1.1%) were called active. The shares of active, inactive and inconclusive entries below differ from those in the screen. Calls come from the whole dose curve; as a rule, active = well fitted inhibition curve with a large enough effect; inconclusive = small, poorly fitted or top-dose-only effect, or another doubt; inactive = no such curve, though single readings can be large or run the other way. Potencies beside an inconclusive call are fits to weak or partial responses and may not hold up.

By UniProt entry, the sequences of proteins in these tests, tags left out.
UniProt P18054, whole entry, looked up: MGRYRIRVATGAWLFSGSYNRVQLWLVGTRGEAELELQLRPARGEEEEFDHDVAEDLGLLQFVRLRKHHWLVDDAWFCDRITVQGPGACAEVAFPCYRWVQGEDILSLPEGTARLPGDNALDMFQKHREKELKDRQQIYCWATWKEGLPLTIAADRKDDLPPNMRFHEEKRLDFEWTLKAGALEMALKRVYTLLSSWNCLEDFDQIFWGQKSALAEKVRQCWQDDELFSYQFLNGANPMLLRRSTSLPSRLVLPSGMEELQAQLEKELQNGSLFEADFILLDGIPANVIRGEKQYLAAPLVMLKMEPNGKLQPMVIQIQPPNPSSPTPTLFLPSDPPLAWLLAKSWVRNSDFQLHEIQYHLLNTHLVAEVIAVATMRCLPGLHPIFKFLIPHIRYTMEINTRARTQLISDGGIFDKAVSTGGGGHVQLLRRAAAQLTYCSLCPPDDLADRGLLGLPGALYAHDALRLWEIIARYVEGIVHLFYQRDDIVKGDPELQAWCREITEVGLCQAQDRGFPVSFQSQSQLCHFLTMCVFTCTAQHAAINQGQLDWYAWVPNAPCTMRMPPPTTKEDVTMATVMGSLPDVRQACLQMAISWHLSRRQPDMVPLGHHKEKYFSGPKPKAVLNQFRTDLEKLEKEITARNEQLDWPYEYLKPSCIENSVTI

target: Polyunsaturated fatty acid lipoxygenase ALOX12 (Homo sapiens) (UniProt P18054); assay: Primary qHTS assay for inhibitors of human arachidonate 12S-lipoxygenase (ALOX12): Round 2; settings: purified 12hLO, xylenol orange hydroperoxide absorbance; activity change, negative = inhibition: at 108 µM (top of the series) unless noted
In short: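 Purified human 12hLO at 150 nM in 25 mM Hepes, 0.01% Triton X-100, pH 7.0, preincubated 15 min at room temperature with compound. Reaction started with 40 uM arachidonic acid, 30 min at room temperature. Hydroperoxide measured by Fe-xylenol orange, 573/405 nm absorbance ratio.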
% is set by controls: 0 for no effect and ±100 for the full control effect; potency is the fitted concentration of half-maximal effect.

Row | Compound | Potency | activity change, negative = inhibition
1 | Cc1ccc(SCCNC(=S)Nc2cc(C)ccc2C)cc1 | inconclusive: 10 µM [inhibitor, full curve, poor fit] | 
2 | O=C(Nc1c(F)cc(F)cc1Br)c1ccco1 |  | inactive: -13.2%
3 | Cc1ccc(N/N=C/c2ccc(F)c(F)c2)cc1 | inconclusive: 4.47 µM [inhibitor, full curve, poor fit] | 
4 | CCc1ccc(OC(=O)/C=C/c2ccccc2)cc1 | inconclusive: 31.6 µM [inhibitor, single point] | 
5 | O=S1(=O)N[C@@H](Cc2ccccc2)COc2cccc(N3CCCCC3)c21 | inconclusive: 5.62 µM [inhibitor, partial curve, poor fit] | 
6 | CCOc1ccc(CNC(=O)c2cccc(NC(=O)N3CCSc4ncccc43)c2)cc1 | inconclusive: 56.2 µM [inhibitor, partial curve, poor fit] | 
7 | C=CCOc1ccc(Br)cc1/C=C1/SC(=Nc2ccc(C(=O)O)cc2)NC1=O | inconclusive: 22.4 µM [inhibitor, partial curve, poor fit] | 
8 | Cc1cc(C)n(C2CCN(C(=O)CCc3cc4n(n3)CCNC4)C2)n1 (stereo not given) | inconclusive: 25.1 µM [inhibitor, single point] | 
9 | O=[S+]([O-])(c1cccc(C(F)(F)F)c1)N1CCCC2(CC(c3ccccc3)=NO2)C1 (stereo not given) |  | inactive: -1.12% [at 6.33 µM]
10 | Cn1cccc1CC(=O)N/N=C/C=C/c1ccco1 | inconclusive: 14.1 µM [inhibitor, full curve] | 
11 | COc1ccccc1/C=C/C=C1\Oc2cc(OC(=O)C(C)(C)C)ccc2C1=O | inconclusive: 1.12 µM [inhibitor, full curve] | 
12 | Cc1cc(-c2ccc(C)c(S(=O)(=O)N3CCC(C)CC3)c2)on1 | inconclusive: 178 µM [inhibitor, single point] | 
13 | CCCCCCC1(C)NC(=S)N(c2ccccc2)N1 (stereo not given) | inconclusive: 0.398 µM [inhibitor, full curve, poor fit] | 
14 | COCCn1c(=O)c(CCc2ccccc2)nc2cncnc21 | inconclusive: 28.2 µM [inhibitor, partial curve, poor fit] | 
15 | COc1cccc2cc(-c3csc(CCn4nc(C)cc4C)n3)c(=O)oc12 | inconclusive: 79.4 µM [inhibitor, partial curve, poor fit] | 
16 | Cc1nn(-c2ccccc2)c(N)c1N=Nc1ccccc1 | inconclusive: 70.8 µM [inhibitor, single point] | 
17 | CCOC(=O)c1ccc(NC(=O)Cc2cccs2)cc1 | inconclusive: 35.5 µM [inhibitor, partial curve, poor fit] | 
18 | O=C(CN1CCC(O)(c2cccc(F)c2)CC1)NCCc1c[nH]c2ccccc12 |  | inactive: -14.5%
19 | Oc1c(C=C2N=c3ccccc3=N2)sc(=S)n1-c1ccc(F)cc1 | inactive | 
20 | CC1(c2nnnn2-c2ccc3c(c2)OCCO3)CCC(=O)N1CCCN1CCOCC1 (stereo not given) | inconclusive: 44.7 µM [inhibitor, partial curve, poor fit] | 
21 | COc1ccc(C(=O)O/N=C(/c2cccs2)C(C)(C)C)cc1 | inconclusive: 2.82 µM [inhibitor, full curve] | 
22 | CCCn1nc(C(=O)N(C)C(C)c2ccc(F)c(F)c2)c2ccccc2c1=O (stereo not given) | inconclusive: 50.1 µM [inhibitor, partial curve, poor fit] | 

Row | Compound | Potency | activity change, negative = inhibition
23 | COc1ncccc1CNC(=O)c1nccnc1N | inconclusive: 100 µM [inhibitor, single point] | 
24 | COc1ccc(S(=O)(=O)N2CCC[C@H]2C(=O)NC2=NCCS2)cc1 |  | inactive: 1.14%
25 | CC(C)Cn1c(-c2ccccc2F)n[nH]c1=S | active: 25.1 µM | 
26 | CC(=O)c1cccc(NC(=O)C(C)OC(=O)C2=NNC(=O)CC2)c1 (stereo not given) | inconclusive: 39.8 µM [inhibitor, partial curve, poor fit] | 
27 | CCCc1nn(C)c2c(=O)[nH]c(-c3cc(S(=O)(=O)Nc4cccc(C)c4)ccc3OCC)nc12 |  | inactive: -1.94%
28 | CCCNC(=O)c1cnn2c(C)c(Cc3c(C)cc(C)cc3C)c(C)nc12 | inconclusive: 112 µM [inhibitor, partial curve, poor fit] | 
29 | CC(C)OCCCNC(=O)c1sc(=S)n(C)c1N | inconclusive: 50.1 µM [inhibitor, partial curve, poor fit] | 
30 | Oc1[nH]c2ccccc2c1C=Nc1ccc2c(c1)OCCO2 | inconclusive: 31.6 µM [inhibitor, single point] | 
31 | COc1ccc2[nH]c(C)c(CCN3C(=O)C4C5C=CC(C5)C4C3=O)c2c1 (stereo not given) | inconclusive: 25.1 µM [inhibitor, single point] | 
32 | Cc1cc(C)cc(C(=O)OCCN(C)C2CN(Cc3cn(Cc4ccccc4C(F)(F)F)nn3)S(=O)(=O)C2)c1 (stereo not given) | inconclusive: 70.8 µM [inhibitor, partial curve, poor fit] | 
33 | O=C(O)c1cc(Cl)c(Cl)cc1C(=O)O | inconclusive: 39.8 µM [inhibitor, full curve, poor fit] | 
34 | O=C1OC(c2cccs2)=N/C1=C/c1ccc(-c2cccc(C(=O)O)c2)o1 | inconclusive: 79.4 µM [inhibitor, partial curve, poor fit] | 
35 | Cc1nn2c(c1-c1ccccc1C(C)C)N(Cc1ccc(C(=O)O)cc1)CCC2 | inconclusive: 63.1 µM [inhibitor, full curve] | 
36 | O=C(Nc1ccc2oc(=O)ccc2c1)c1ccc(-c2ccccc2[N+](=O)[O-])o1 | inconclusive: 100 µM [inhibitor, partial curve, poor fit] | 
37 | COc1ccc(-n2nc(C3CCN(C(=O)c4ccccc4Cl)CC3)[nH]c2=O)cc1 |  | inactive: 27.6%
38 | O=C(CC1CCCC1)Nc1nc2ccccc2[nH]1 |  | inactive: 14.9%
39 | CNC(=O)c1ccc(-c2nc(CN3CCN(C(=O)Nc4ccc(Cl)cc4)CC3)c(C)o2)cc1 |  | inactive: -11.5%
40 | O=C(c1cc2c(s1)CCCC2)N1CCN(Cc2ccc3c(c2)OCO3)CC1 | inconclusive: 44.7 µM [inhibitor, partial curve] | 
41 | CCOc1ccccc1NC(=O)N1CCCCCCN(C)C(=O)[C@H]2CCC[C@H]21 |  | inactive: 63%
42 | CCOC(=O)c1oc2ccc(S(=O)(=O)NCC3Cn4cccc4C(=O)N3C)cc2c1C (stereo not given) | active: 35.5 µM | 
43 | O=C(Nc1ccc(Cl)cc1)C1CCN(c2cnc3ccccc3n2)CC1 | inconclusive: 44.7 µM [inhibitor, partial curve, poor fit] | 
44 | O=C(Nc1nonc1-c1ccc2c(c1)CCCC2)c1cc(=O)c2ccccc2o1 |  | inactive: -36.5%

Row | Compound | Potency | activity change, negative = inhibition
45 | COc1cccc(NC(=O)CSc2nnc(-c3cccc(OC(C)C)c3)n2N)c1 | inconclusive: 63.1 µM [inhibitor, partial curve, poor fit] | 
46 | COc1ccc(-n2nc3c(N4CCCC(C(=O)NCc5ccc(C)cc5)C4)nnc(C)c3c2C)cc1 (stereo not given) | inconclusive: 63.1 µM [inhibitor, partial curve, poor fit] | 
47 | Cc1ccc(C(=O)Nc2cccc(-c3nc4ccccc4o3)c2)cc1[N+](=O)[O-] | inconclusive: 39.8 µM [inhibitor, partial curve, poor fit] | 
48 | c1ccc2c(c1)CCN(c1nc3ccccc3n3cnnc13)C2 | inconclusive: 17.8 µM [inhibitor, partial curve, poor fit] | 
49 | CCOC(=O)N1CCN(C(=O)CN2C(=O)NC(c3ccccc3)(c3ccccc3)C2=O)CC1 |  | inactive: -6.63%
50 | CCOc1cc(C(=O)N(C)CC(=O)Nc2cccc3ccccc23)ccc1OC | inconclusive: 89.1 µM [inhibitor, single point] | 
51 | CCc1ccc(N=C2NC(=O)/C(=C/c3ccc(OCC(=O)O)c(OC)c3)S2)cc1 | inconclusive: 28.2 µM [inhibitor, partial curve, poor fit] | 
52 | Cc1[nH]c2ccccc2c1C(c1ccccc1F)c1c(C)[nH]c2ccccc12 | inconclusive: 10 µM [inhibitor, full curve, poor fit] | 
53 | CN(CCCn1ccnc1-c1cnc[nH]1)c1ccccc1 |  | inactive: 113%
54 | COC(=O)c1ccc(OCC(O)CNCC(c2ccc(OC)cc2)N(C)C)c(OC)c1 (stereo not given) | inconclusive: 0.224 µM [inhibitor, full curve, poor fit] | 
55 | CCCc1ccc(-c2csc(NC(=O)Cn3ncc4ccccc4c3=O)n2)cc1 | inconclusive: 44.7 µM [inhibitor, partial curve, poor fit] | 
56 | Cc1ccc2nc3c(c(N)c2c1)CCN3c1ccccc1 | inconclusive: 0.398 µM [inhibitor, full curve, poor fit] | 
57 | Cc1ccc(C(=O)NC(=S)Nc2ccccc2C)cc1 | inconclusive: 8.91 µM [inhibitor, full curve, poor fit] | 
58 | CC(C)Nc1nc(NC(C)C)nc(N(C)N)n1 |  | inactive: 4.38%
59 | COCCCNCCCCOc1ccc(Br)cc1Cl |  | inactive: -15.1%
60 | COc1ccc(CN(C)C(=O)c2ccc(Cl)c(S(=O)(=O)NCc3cccnc3)c2)cc1F | inconclusive: 89.1 µM [inhibitor, single point] | 
61 | Cc1ccc(/C(N)=N/OC(=O)c2ccc(F)cc2)cc1 |  | inactive: -9.21%
62 | O=C1/C(=C/c2ccncc2)CCC/C1=C\c1ccncc1 |  | inactive: -7.8%
63 | OC1CCN(Cc2ccc3c(c2)CN(C/C=C/c2ccco2)CCO3)CC1 | inconclusive: 44.7 µM [inhibitor, partial curve, poor fit] | 
64 | COc1cc2c(cc1OC)CN(CCOc1ccc(Br)cc1)CC2 | inconclusive: 56.2 µM [inhibitor, partial curve, poor fit] | 
65 | C[C@H]1COc2cc(N3CCSCC3)ccc2S(=O)(=O)N1 | inconclusive: 112 µM [inhibitor, partial curve, poor fit] | 

Given with each value named: part of the list above.
c1ccc2c(c1)CCN(c1nc3ccccc3n3cnnc13)C2
  Potency: inconclusive: 17.8 µM [inhibitor, partial curve, poor fit]
CCOC(=O)N1CCN(C(=O)CN2C(=O)NC(c3ccccc3)(c3ccccc3)C2=O)CC1
  activity change, negative = inhibition: inactive: -6.63%
CCOc1cc(C(=O)N(C)CC(=O)Nc2cccc3ccccc23)ccc1OC
  Potency: inconclusive: 89.1 µM [inhibitor, single point]
CCc1ccc(N=C2NC(=O)/C(=C/c3ccc(OCC(=O)O)c(OC)c3)S2)cc1
  Potency: inconclusive: 28.2 µM [inhibitor, partial curve, poor fit]
